About 7,500 (2.1%) of roughly 360,000 compounds were called active. Inconclusive results, whose numbers are uncertain, are shown with a selection of clear calls. The call rests on the fitted dose curve; in most records, active means well fitted inhibition curve with a large enough effect; inconclusive means small, poorly fitted or top-dose-only effect, or effect the other way; inactive means flat fitted curve, though single readings scatter. A potency beside an inconclusive call is a rough fit, not a confirmed value.
experiment: Nrf2 qHTS screen for inhibitors; details: A549 ARE-Fluc reporter, luciferase luminescence, 18-24 h; activity change, negative = inhibition: at 46 µM (top of the series); further: nearly all actives have a fitted effect of over 60% in size
Outline: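 In this cell-based qHTS, ARE-driven firefly luciferase in A549 cells reports Nrf2 activity; the luminescent signal after BugLite lysis is the measured value, with a prior CellTiter-Fluor read for cell health.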
On the % scale 0 is the no-effect control and ±100 the full control effect; potency means the concentration at half of the fitted maximal effect.

| SMILES | Potency | activity change, negative = inhibition |
| --- | --- | --- |
| Cc1ccc(C(=O)CC2(O)C(=O)N(Cc3ccccc3)c3ccccc32)c(C)c1 (centres undefined) | inconclusive: 20.6 µM [falling, partial curve, poor fit] | – |
| Cc1ccccc1Nc1c(-c2ccccn2)nc2ccccn12 | inconclusive: 29.1 µM [falling, single point] | – |
| COC(=O)c1ccccc1NC(=O)Cn1c(=O)cc(C)c2c(C)nn(-c3cccc(Cl)c3C)c21 | – | inactive: 19.2% |
| C/C(=N\Nc1nc2c(s1)CCCC2)c1ccc(Cl)cc1 | inconclusive: 20.6 µM [activator, single point] | – |
| O=C(Nc1nnc(S(=O)(=O)N2CCc3ccccc32)s1)c1ccccc1Cl | inconclusive: 14.6 µM [activator, partial curve, poor fit] | – |
| CC(=O)Nc1ccc(NC(=O)CSc2ncnc3c2cnn3Cc2ccccc2)cc1 | inconclusive: 18.4 µM [activator, partial curve] | – |
| Cn1c(=O)c2c(nc(NCc3ccco3)n2CC(O)CO)n(C)c1=O (centres undefined) | inconclusive: 0.164 µM [falling, full curve, poor fit] | – |
| Cc1ccc(-c2nn(-c3cc(Cl)ccc3[N+](=O)[O-])c(=O)c3ccccc23)cc1C | inconclusive: 16.4 µM [falling, single point] | – |
| COc1cccc(/C=C/C(=O)OCC(=O)c2ccccc2)c1OC | inconclusive: 0.461 µM [activator, full curve, poor fit] | – |
| O=C(Nc1ccc2cn[nH]c2c1)c1ccccc1F | inconclusive: 11.6 µM [activator, partial curve] | – |
| CCCC(=O)Nc1sc2c(c1C#N)CC(C)(C)NC2(C)C | – | inactive: 7.97% |
| CCOc1ncccc1C(=O)NCc1ccccc1F | inconclusive: 14.6 µM [falling, partial curve, poor fit] | – |
| Cn1nccc1NC(=O)CC1(CC(=O)O)CCCCC1 | inconclusive: 0.116 µM [falling, full curve, poor fit] | – |
| CCc1ccc(N2CC(C(=O)OCC(=O)Nc3ccc([N+](=O)[O-])cc3)CC2=O)cc1 (centres undefined) | inconclusive: 32.6 µM [activator, partial curve, poor fit] | – |
| CN(C)c1ccc(CNC(=O)Cn2ccc3cc(S(=O)(=O)N4CCCCCC4)ccc32)cc1 | – | inactive: -18.5% |
| COc1ccc(-c2nc(Cn3c(=O)cc(C)c4c(C)nn(-c5ccccc5)c43)c(C)o2)c(OC)c1 | – | inactive: 16.5% |
| O=C(c1ccccc1)c1ccccc1N1C(=O)C=CC1=O | – | inactive: -21.8% |
| COC(=O)c1cc(C)ccc1/C=C1/Cc2c(C)cc(C)cc2C1=O | – | inactive: 5.97% |
| COc1ccc(CN2CCN(S(=O)(=O)c3ccc(C)cc3)CC2)cc1Br | inconclusive: 32.6 µM [falling, partial curve, poor fit] | – |

Looked up above:
Value for `COc1ccc(-c2nc(Cn3c(=O)cc(C)c4c(C)nn(-c5ccccc5)c43)c(C)o2)c(OC)c1` under activity change, negative = inhibition: inactive: 16.5%
Value for `O=C(c1ccccc1)c1ccccc1N1C(=O)C=CC1=O` under activity change, negative = inhibition: inactive: -21.8%

Reference: PubChem BioAssay AID504444 (National Center for Advancing Translational Sciences (NCATS), 2011)
